Data published in PubChem BioAssay AID2685 (National Center for Advancing Translational Sciences (NCATS), 2010).
Some of the results follow. Further columns of the screen follow, without active or inactive calls. Most of these compounds were active or inconclusive in the main read-out, so they are no random draw. The note in brackets gives the kind of curve behind each potency; many fits are weak.

Assay: qHTS Assay for Lipid Storage Modulators in Drosophila S3 Cells;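 as to cell number change: cells counted by Cell Tracker Red CMTPX staining in the red channel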
Conditions: BODIPY lipid droplet fluorescence, 18-24 h; for cell number change: measured here: cell count max response, cells fed with added oleic acid
Procedure, shortened: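 Laser-scanning cytometry quantifies lipid droplet accumulation (500–530 nm total intensity; droplet/cell object ratio) in oleic acid-fed (400 uM added) Drosophila S3 cells treated with a concentration series. 20 uM Triacsin C defined 100% inhibition.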

[1] = measured here: cell number channel AC50, cells fed with added oleic acid
[2] = measured here: lipid fluorescence (Fed channel) AC50, cells fed with added oleic acid

With CCC1c2ccc(C)n2CCN1C(=O)Nc1ccc(F)cc1 (stereo unspecified) the cell number change was -3.06%.

In the case of Cc1[nH]c(C)c(C(=O)/C=C/c2ccc([N+](=O)[O-])cc2)c1C, the cell number change is reported as -47.3% and the AC50 [1] is reported as 13 µM [falling, single point].

With O=C(COc1ccc2c3c(c(=O)oc2c1)CCC3)NCc1ccncc1 the cell number change was 17.1% and the AC50 [2] was 29.1 µM [rising, single point].

In the case of COc1ccc(/C(O)=C2\C(=O)C(=O)N(CCN(C)C)C2c2cccc(OC)c2OC)cc1 (stereo unspecified), the cell number change is reported as 30.5%, the AC50 [1] is reported as 0.651 µM [rising, full curve, poor fit] and the AC50 [2] is reported as 0.411 µM [falling, single point].

With Cc1ccc(C(=O)NCCN(C)C)cc1C the AC50 [2] was 23.1 µM [falling, single point].

With O=C1NCCCN1Cc1ccc(Cl)cc1 the cell number change was -33.3% and the AC50 [1] was 29.1 µM [falling, single point].

For O=C(COc1ccccc1)Nc1cc(NC(=O)COc2ccccc2)cc(C(=O)O)c1, the cell number change was 14.6%.

In the case of O=C(N/N=C/c1c(O)n(-c2ccc(Cl)cn2)c(=O)c2ccccc12)c1ccncc1, the cell number change is reported as -19.6% and the AC50 [2] is reported as 0.651 µM [falling, partial curve, poor fit].

For O=C(O)CCN=CC1=C(O)CC(c2ccccc2)CC1=O (stereo unspecified), the AC50 [2] was 1.16 µM [falling, full curve].

For O=C(Nc1ccc(Cl)cc1F)c1ccc(COc2c(F)c(F)c(F)c(F)c2F)o1, the cell number change was -10.6% and the AC50 [2] was 0.000164 µM [falling, full curve, poor fit].

With Cc1cc(=O)n2c3c(cccc13)CCC2 the cell number change was 8.68% and the AC50 [2] was 9.2 µM [rising, partial curve, poor fit].

With COc1cc(/C=N/N=C2/NC(=O)C(c3ccccc3)S2)ccc1O (stereo unspecified) the AC50 [1] was 2.31 µM [falling, single point].

With O=[N+]([O-])c1ccc(S(=O)(=O)Nc2cccc(-c3ccc(N4CCCC4)nn3)c2)cc1 the cell number change was 43.9% and the AC50 [1] was 25.9 µM [rising, single point].

Cc1ccn2cc(CNS(=O)(=O)c3ccc4ccccc4c3)nc2c1 gave a cell number change of -5.78%.

CC(=O)c1cccc(NC(=O)Cc2cccs2)c1 gave a cell number change of 4.66%.

With O=C(/C=C/Nc1ccc(Cc2ccc(N/C=C/C(=O)C(F)(F)F)cc2)cc1)C(F)(F)F the cell number change was -50.8%, the AC50 [1] was 7.31 µM [falling, partial curve] and the AC50 [2] was 8.2 µM [falling, partial curve].

With O=C(Nc1nc(-c2ccncc2)cs1)c1ccc(S(=O)(=O)N2CCOCC2)cc1 the cell number change was 11.4%.

For Cc1ccc(C(=O)N2CCCC(C(=O)c3ccc(Cl)cc3C)C2)cn1 (stereo unspecified), the cell number change was 14.9% and the AC50 [2] was 0.411 µM [falling, partial curve, poor fit].

Molecule Cc1nc2ccc(NS(=O)(=O)c3ccc(F)c(F)c3)cc2s1 has a cell number change of -22.3%.

In the case of COc1nc(OCCNC(=O)Nc2ccccc2)nc(N(C)C)n1, the AC50 [2] is reported as 4.61 µM [falling, full curve, poor fit].

With O=c1oc2ccccc2n1Cc1cccc(Cl)c1 the cell number change was -50.6% and the AC50 [2] was 29.1 µM [falling, single point].

CC1=NN(C(=O)CSCc2ccccc2)C(O)(c2ccc(F)cc2)C1 (stereo unspecified) showed a cell number change of -1.85%.

In the case of Cc1ccc(C(=O)O)cc1NC(=S)NCCc1ccccc1, the AC50 [1] is reported as 1.46 µM [rising, full curve, poor fit].

In the case of Cc1cc(C)c(NC(=O)C2CCCN2CCC(C)C)c(C)c1 (stereo unspecified), the cell number change is reported as -28.1% and the AC50 [2] is reported as 32.6 µM [falling, single point].

With Cc1ccc(C2=N/C(=C\N3CCCCC3)C(=O)O2)cc1 the cell number change was 8.66% and the AC50 [2] was 6.51 µM [rising, full curve, poor fit].

With O=C(CCN1CCOCC1)c1ccc(Br)cc1 the cell number change was -42.1% and the AC50 [1] was 18.4 µM [falling, single point].

For O=C(Cc1ccc(Cl)c(Cl)c1)Nc1ccc(SC(F)F)cc1, the cell number change was -81.4%, the AC50 [1] was 32.6 µM [falling, partial curve] and the AC50 [2] was 25.9 µM [falling, partial curve, poor fit].

In the case of NC(=O)c1ccccc1OCc1nc2ccccc2s1, the cell number change is reported as -5.13% and the AC50 [2] is reported as 0.103 µM [rising, partial curve, poor fit].

With CCC(c1nnnn1C(C)(C)C)N(Cc1ccco1)Cc1cc2cccc(C)c2[nH]c1=O (stereo unspecified) the cell number change was 34.3%, the AC50 [1] was 0.82 µM [rising, full curve, poor fit] and the AC50 [2] was 1.84 µM [rising, partial curve].

In the case of O=S(=O)(c1ccc(SCCO)nc1)N1CCOCC1, the cell number change is reported as -47.2%, the AC50 [1] is reported as 58 µM [falling, partial curve, poor fit] and the AC50 [2] is reported as 3.66 µM [falling, full curve].

CN(CC(=O)Nc1sc2c(c1C#N)CCCCC2)Cc1nc2ccccc2c(=O)[nH]1 showed a cell number change of 17.9%.

With CCCCCN(C(=O)CCC(=O)OCC(=O)NC1CCC(C)CC1)c1c(N)n(CCCC)c(=O)[nH]c1=O (stereo unspecified) the cell number change was 1.02%, the AC50 [1] was 6.51 µM [falling, single point] and the AC50 [2] was 6.51 µM [falling, single point].

For CN(C(=O)CSc1nnc(-c2ccccc2F)o1)c1ccccc1, the cell number change was 94.5%.

In the case of Cc1ccc(C(=O)OCC(=O)c2ccc[nH]2)s1, the AC50 [1] is reported as 0.731 µM [falling, single point] and the AC50 [2] is reported as 0.651 µM [falling, partial curve, poor fit].

Cc1ccc(OC(=O)c2cc(=O)c3ccccc3o2)cc1 showed a cell number change of -21.5%.

In the case of CCN(CCCNC(=O)c1ccc2c(c1)NC(=O)CN2C)c1cccc(C)c1, the cell number change is reported as 20% and the AC50 [2] is reported as 29.1 µM [rising, single point].

For Cc1cc(O)c(-c2cc(C(=O)NCCc3ccc(S(N)(=O)=O)cc3)[nH]n2)cc1C, the cell number change was 41.2%, the AC50 [1] was 0.517 µM [rising, full curve, poor fit] and the AC50 [2] was 3.66 µM [rising, partial curve].

With O=C(N/N=C/c1ccc(O)cc1O)NC12CC3CC(CC(C3)C1)C2 the cell number change was -20.8% and the AC50 [2] was 29.1 µM [rising, single point].

In the case of O=C(Nc1cccnc1)c1cc(-c2cccnc2)nc2ccc(Br)cc12, the cell number change is reported as -6.18% and the AC50 [2] is reported as 0.13 µM [falling, full curve, poor fit].

With CCOC(=O)CSc1nc2c(sc(=S)n2-c2ccccc2)c(=O)[nH]1 the AC50 [1] was 3.26 µM [rising, single point].
